Taken from: PubChem BioAssay AID686937 (Drosophila RNAi Screening Center, 2013)
Aim: 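Genes whose loss weakens secretory pathway function in fly cells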 (primary screen). Cells: Drosophila S2 cells expressing secreted horseradish peroxidase. Reagent: long dsRNA against Drosophila genes. Duration: about 5.5 days (5 days dsRNA, then 12 h reporter induction). Challenge: reporter expression induced after 5 days of dsRNA, read 12 h later; inducer not stated. Measurement: 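After 5 days of dsRNA and 12 h of reporter induction, medium peroxidase read by chemiluminescence and scored as per-plate z-score; higher values mean more reporter released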. Reading the numbers: z-score: higher = more reporter secreted into medium.
In all, the deposit lists about 23,000 reagents; shown is a random part of those with a known target gene and a result. 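Reduced-secretion tags in replicate 1 do not always agree with the z-scores; no criterion for assigning the tags was given.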 Reagents against one gene are numbered here. Names joined by + are all predicted targets of the reagent. Not all columns of the deposit are shown. The record does not give: the amount of reagent.

| target | dsRNA no. | z-score, replicate 1 | z-score, replicate 2 |
| --- | --- | --- | --- |
| TM9SF3 (GeneID 38635) | 1 | -0.17 | -0.07 |
| B9d1 (GeneID 41888) | 1 | 0.31 | -0.22 |
| Blos4 (GeneID 39219) | 1 | 0.61 | 0.58 |
| CG11929 (GeneID 33668) | 1 | 0.48 | -0.11 |
| CG14564 (GeneID 40425) | 1 | 0.4 | 0.32 |
| CG14564 (GeneID 40425) | 2 | 1.14 | 1.16 |
| CG15764 (GeneID 31516) | 1 | 0.38 | 0.4 |
| CG16974 (GeneID 34713) | 1 | 0.45 | 0.35 |
| CG14676 (GeneID 40729) | 1 | 0.33 | 0.19 |
| inaF-C (GeneID 5740497) | 1 | 0.29 | 0.82 |
| az2 (GeneID 35682) | 1 | 0.34 | 0.11 |
| CG32379 (GeneID 326211) | 1 | -0.13 | 0.15 |
| alph (GeneID 43481) | 1 | 0.83 | 0.73 |
| sd (GeneID 32536) | 1 | 0.17 | 0.14 |
| sd (GeneID 32536) | 2 | 0.3 | 0.7 |
| CG5762 (GeneID 42907) | 1 | 0.24 | 0.28 |
| Lam (GeneID 33782) | 1 | -1.35 | -0.88 |
| Cpr35B (GeneID 34846) | 1 | 0.16 | 0.12 |
| Cpr35B (GeneID 34846) | 2 | 1.04 | 0.56 |
| CG12206 (GeneID 31316) | 1 | -0.04 | -0.66 |
| CG4960 (GeneID 43115) | 1 | 0.11 | 0 |
| Psf1 (GeneID 38136) | 1 | 0.3 | 0.51 |
| CG31198 (GeneID 318622) | 1 | 0.19 | 0.16 |
| CD98hc (GeneID 40941) | 1 | 0.14 | -0.15 |
| Cog7 (GeneID 43547) | 1 | 0.16 | 0.26 |
| CG9662 (GeneID 33554) | 1 | 0.18 | 0.41 |
| Cpr49Ac (GeneID 36348) | 1 | 0.25 | 0.38 |
| mRpS21 (GeneID 318249) | 1 | -0.58 | 0.24 |
| mRpS21 (GeneID 318249) | 2 | -1.59 | -1.14 |
| CG33752 (GeneID 3771860) | 1 | 0.33 | -0.01 |
| Chrac-16 (GeneID 32166) | 1 | 0.39 | 0.18 |
| Mks1 (GeneID 32200) | 1 | 0.12 | 0.12 |
| sau (GeneID 33402) | 1 | -0.22 | -0.31 |
| CG33340 (GeneID 2768682) | 1 | 0.44 | 0.47 |
| Glut3 (GeneID 42036) | 1 | 0.36 | 0.43 |
| sav (GeneID 252554) | 1 | 0.32 | 0.14 |
| sav (GeneID 252554) | 2 | 0.42 | 0.44 |
| RpS28b (GeneID 31897) | 1 | -2.06 | -1.93 |
| mEFTu1 (GeneID 44438) | 1 | -0.05 | -0.14 |
| CG12057 (GeneID 31854) | 1 | 0.44 | 0.29 |
| Acox3 (GeneID 33898) | 1 | 0.7 | 0.5 |
| Tektin-C (GeneID 38653) | 1 | -2.83 | -1.65 |
| CG14820 (GeneID 38754) | 1 | -0.2 | -0.07 |
| CG12725 (GeneID 32298) | 1 | 0.5 | 0.67 |
| nht (GeneID 34902) | 1 | 0.16 | 0.51 |
| rad (retired record) (GeneID 32251) | 1 | -0.09 | 0.19 |
| rad (retired record) (GeneID 32251) | 2 | 0.37 | 0.36 |
| rad (retired record) (GeneID 32251) | 3 | 0.07 | -0.01 |
| rad (retired record) (GeneID 32251) | 4 | 1.28 | 2.39 |
| plu (GeneID 44848) | 1 | -0.91 | -0.06 |

Next part, starting with the last 10 of the part before.
| target | dsRNA no. | z-score, replicate 1 | z-score, replicate 2 |
| --- | --- | --- | --- |
| Acox3 (GeneID 33898) | 1 | 0.7 | 0.5 |
| Tektin-C (GeneID 38653) | 1 | -2.83 | -1.65 |
| CG14820 (GeneID 38754) | 1 | -0.2 | -0.07 |
| CG12725 (GeneID 32298) | 1 | 0.5 | 0.67 |
| nht (GeneID 34902) | 1 | 0.16 | 0.51 |
| rad (retired record) (GeneID 32251) | 1 | -0.09 | 0.19 |
| rad (retired record) (GeneID 32251) | 2 | 0.37 | 0.36 |
| rad (retired record) (GeneID 32251) | 3 | 0.07 | -0.01 |
| rad (retired record) (GeneID 32251) | 4 | 1.28 | 2.39 |
| plu (GeneID 44848) | 1 | -0.91 | -0.06 |
| Drep3 (GeneID 36292) | 1 | 0.31 | 0.32 |
| Drep3 (GeneID 36292) | 2 | 0.74 | 0.58 |
| Drep3 (GeneID 36292) | 3 | 0.31 | -0.23 |
| mbc (GeneID 42817) | 1 | 0.01 | 0.18 |
| CG41099 (GeneID 3355072) | 1 | 0.11 | 0.2 |
| CG41099 (GeneID 3355072) | 2 | 0.18 | 0.25 |
| Pex1 (GeneID 45460) | 1 | 0.46 | 0.39 |
| CG7296 (GeneID 34469) | 1 | 0.27 | 0.69 |
| CG7296 (GeneID 34469) | 2 | -0.25 | -0.31 |
| dor (GeneID 31118) | 1 | 0.03 | 0.14 |
| CG7518 (GeneID 41599) | 1 | 0.46 | 0.44 |
| Hmbs (GeneID 46140) | 1 | 0.27 | 0.32 |
| 7SLRNA:CR42652 + 7SLRNA:CR32864 | 1 | 0.42 | 0.4 |
| Lrpprc2 (GeneID 31095) | 1 | -0.42 | -0.19 |
| Boh1 (GeneID 338395) | 1 | 0.26 | 0.37 |
| gskt (GeneID 318552) | 1 | 0.67 | 0.79 |
| Rsbp15 (GeneID 41481) | 1 | 0.51 | 0.35 |
| CG7707 (GeneID 39923) | 1 | 0.08 | -0.35 |
| Tsp26A (GeneID 33838) | 1 | 0.13 | 0.2 |
| Tsp86D (GeneID 41310) | 1 | 0.31 | 0.63 |
| CG11149 (GeneID 33800) | 1 | 0.19 | 0.14 |
| Det (GeneID 42077) | 1 | -0.51 | -0.51 |
| Pfas (GeneID 33847) | 1 | 0.1 | 0.15 |
| S6KL (GeneID 45970) | 1 | 0.23 | 0.2 |
| S6KL (GeneID 45970) | 2 | -0.21 | 0.59 |
| St4 (GeneID 36548) | 1 | 0.41 | 0.38 |
| Spt5 (GeneID 53442) | 1 | -2.34 | -1.1 |
| TH1 (GeneID 32607) | 1 | 0.69 | 0.6 |
| CG8837 (GeneID 33545) | 1 | 0.26 | 0.36 |
| Lcp65Ag3 + Lcp65Ag2 + Lcp65Ag1 | 1 | 0.36 | 0.27 |
| Lcp65Ag3 + Lcp65Ag2 + Lcp65Ag1 | 2 | 0.13 | 0.25 |
| Trmt6 (GeneID 33920) | 1 | -0.01 | 0.3 |
